Positions count from the first letter of the chain named. These are yes or no findings as the source states them, for the method shown. In cells and extracts the contact can be indirect. Some binding calls cover weakened binding; strength is not graded here.
Columns and labels:
Assay in all cases: pull-down
[1] = target: T1, smt3-mATGL288-StrepII (mouse adipose triglyceride lipase truncated after D288), wild type (mouse) (UniProt Q8BJ56)
T1 sequence: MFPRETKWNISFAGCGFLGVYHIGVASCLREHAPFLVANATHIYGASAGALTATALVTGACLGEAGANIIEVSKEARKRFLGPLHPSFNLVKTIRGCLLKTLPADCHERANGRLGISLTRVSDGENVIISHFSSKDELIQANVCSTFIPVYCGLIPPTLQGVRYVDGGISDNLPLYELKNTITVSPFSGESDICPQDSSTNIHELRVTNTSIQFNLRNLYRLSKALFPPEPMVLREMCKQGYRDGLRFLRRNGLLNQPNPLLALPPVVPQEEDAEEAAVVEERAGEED

Sequences of proteins named here, by UniProt entry; tags and fusion partners are left off. A change or cut given only in a name is not applied to a line headed by its entry.
UniProt Q9DBL9, whole entry: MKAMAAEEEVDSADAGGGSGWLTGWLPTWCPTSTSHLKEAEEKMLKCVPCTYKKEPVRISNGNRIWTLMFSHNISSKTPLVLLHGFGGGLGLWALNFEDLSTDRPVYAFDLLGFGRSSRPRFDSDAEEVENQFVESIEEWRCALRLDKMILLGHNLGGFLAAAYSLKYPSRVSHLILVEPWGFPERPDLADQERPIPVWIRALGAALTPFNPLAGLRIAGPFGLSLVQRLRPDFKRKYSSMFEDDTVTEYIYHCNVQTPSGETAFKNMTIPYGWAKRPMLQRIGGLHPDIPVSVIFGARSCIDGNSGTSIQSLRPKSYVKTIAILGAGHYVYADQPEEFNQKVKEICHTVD

[2] = target: T2, smt3-mATGL288-StrepII I212A (mouse) (UniProt Q8BJ56)
T2 sequence: T1 sequence with I212A

[3] = target: T3, smt3-mATGL288-StrepII I212S (mouse) (UniProt Q8BJ56)
T3 sequence: T1 sequence with I212S

[4] = target: T4, smt3-mATGL288-StrepII N209A (mouse) (UniProt Q8BJ56)
T4 sequence: T1 sequence with N209A

[5] = target: T5, smt3-mATGL288-StrepII N209A/I212A/N215A (mouse) (UniProt Q8BJ56)
T5 sequence: T1 sequence with N209A, I212A, N215A

[6] = target: T6, smt3-mATGL288-StrepII N215A (mouse) (UniProt Q8BJ56)
T6 sequence: T1 sequence with N215A

Measured: binding

smt3-mCGI-58-His6 (mouse comparative gene identification-58) (from UniProt Q9DBL9 1-351)
binds: all assays above
